Source: PubChem BioAssay AID1159506 (NCATS, 2015).

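Luminescence from an EWS-FLI1 target-promoter (NR0B1) reporter, set against a CMV-promoter reporter, two days after silencing single genes in TC32 Ewing sarcoma cells. Each siRNA was applied at 20 nM. A z-score of the log NR0B1-over-CMV signal, less the median of siRNAs with the same seed; more negative means a stronger specific loss of the NR0B1 reporter.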

This is part of the screen; most of the strongest results are not listed here. Sequences are the guide (antisense) strand, without overhang.

strand	gene	seed-corrected z-score
UUUCUGAUCACAAGACUGU	UHRF1	-0.3472
GAAGUUAUCAGAUUAACCA	WDFY3	0.4564
UCUUCGUUCAUUAACUUGG	STAM	-0.0797
UUCGUGAUUUACGAGGUAC	NFAT5	-0.1042
UGCAAUAUAAUGUCGCAUC	CEP126	-0.07569
ACUGGUUUUUGGUGUCUGC	PPDPF	-0.2883
AUUGUUCACGGUCAGAAUG	CTRB1	-1.284
UCAGGGAAAUGAUCCAAGU	SLC13A5	0.5164
UAGAUUACUAGCAAAGAUG	UBA7	0.2214
UUAGAUUGAAGAGAGUGUA	FGF12	1.195
AUCCUUACAAGAGAUGAAC	CABP5	0.461
UUAACAUCUACAUCAUAGG	EPM2AIP1	-1.043
UUUGAUAGUCAUGCCGUCC	SART3	-1.532
AUGAGGAUUAGGCAAAUGC	ZNF18	0.1489
UUCUGAACCACAGGUUCCC	TECPR2	0.3685
UCUCGGUAAUCCUUAAACC	ANO2	0.2525
UGGUCUAUCAGCUCCAGCG	PLIN5	-0.03095
UGCGUACCCUUUGCCAUUG	EVX2	0.1815
UCAGAGGGUUCAACUGAGC	KRTAP12-2	0.921
UAUGGGUACCGGUACGAGC	ZAR1	0.1266
UGCGGUAAUACUGCUGAAC	PREX1	-1.001
UAUGAUAUAAAGUACUAGG	MALRD1	-0.02297
UAAGUCGCCUUGUACACCG	MOS	0.0433
UAUCUCUCAUCAUAGGAGC	DLEC1	0.2935
UCAAGUUUCAGCGCUGGGA	OXT	-0.06784
UAUGAGUCGAAGAUCUCCC	ADRBK1	-0.2138
UGGUUGAGCACGUAGAUGU	B4GALT7	-0.0567
UCUAAGACCACAUCAGCGG	TMEM94	-0.02786
UCAAUGCUAAGUACUUUCA	ZBTB8OS	0.3995
UCUCAGGCAGGCAUUUCUC	NRBF2	0.3667
AUAGGGAAAAUUGCAGUUG	ASCL1	0.2321
UCUCUGUAAACCAAUUGCC	NAA25	-0.8814
UGCUGUUGAACUUCUCCGG	DGKA	1.184
UGGGUUUCUCUGACGAUGC	ST6GAL2	0.2616
UGUUUAGUGAUGUCGGUGC	DDX25	-0.5942
UGAUGCAAUAGAAUCAGGC	PKNOX1	0.752
UAUUUGGUGCAUUCAAUUG	OSTCP2	-0.3388
AACUGUAUGAAGAUCCACC	NAT8B	0.05282
AUCCGGACCAACGAUGUCA	FBL	0.7602
AUCUGAACCGAUGAUUUUC	WHAMM	0.3694
UCGCUUCCGAAUAAAGACC	ZNF525	1.447
AUACUGUACAAAACGAGUC	TLK2	0.2467
UAUGUAUCCAAUGUUUAGC	SERPINB2	-0.2353
GAAUCUUCUGGAAUGAGAG	LOC442132	-0.5098
AUCGGUUUUACACCCAGUC	ANGEL1	0.2741
UUAUUUAUUGGGUUACUUU	C1orf64	-1.598
UAAAGUAAUAUUCCUGUAG	DCPS	0.4391
ACUGUUAGCAGUCGAAUCC	C14orf180	-0.7169
AAAGUUACUGACUCGCUGC	SUPT4H1	-0.3328
UCUUUGAAGAGGAUCUUGG	PLCH2	0.2735
AAAGCAGUCAUCAGAUAUC	CAPG	0.04786

5 of the entries, repeated:

strand	gene	seed-corrected z-score
AUGAGGAUUAGGCAAAUGC	ZNF18	0.1489
AAAGCAGUCAUCAGAUAUC	CAPG	0.04786
UAUGUAUCCAAUGUUUAGC	SERPINB2	-0.2353
UUAUUUAUUGGGUUACUUU	C1orf64	-1.598
GAAUCUUCUGGAAUGAGAG	LOC442132	-0.5098